The supplement of paper PMC6078165

Tested on: Hs578T
Assay: relative JC-1 red fluorescence (viability) vs pre-drug, coculture with fibroblast (fraction); higher = more viable cancer cells
Procedure: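 JC-1 labelled TNBC cells cocultured 1:1 (1,500 cells each) with CellTrace Violet stained primary or stromal fibroblasts in 384-well plates in FluoroBrite medium, treated with one of 42 anticancer drugs at 0.1, 1, 10 or 100 uM. JC-1 red fluorescence (mitochondrial integrity in cancer cells only) was read by plate reader every 8 h for 72 h. Values are normalised to each well's pre-drug value. The stock of one drug was tenfold lower, so its dose labels may be too high.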

C=C1C[C@@H]2[C@H](CC[C@]3(C)C(=O)CC[C@@H]23)[C@@]2(C)C=CC(=O)C=C12 [Exemestane]
relative JC-1 red fluorescence
Settings | 8 h | 16 h | 24 h | 32 h | 40 h | 48 h | 56 h | 64 h | 72 h
10 µM | 0.9251 | 0.82 | 0.776 | 0.749 | 0.707 | 0.669 | 0.651 | 0.604 | 0.586
100 µM | 0.901 | 0.868 | 0.875 | 0.862 | 0.825 | 0.786 | 0.796 | 0.76 | 0.755

relative JC-1 red fluorescence
Settings | 8 h | 16 h | 24 h | 32 h | 40 h | 48 h | 56 h | 64 h | 72 h
10 µM, coculture fibroblast: C12385 | 0.8619 | 0.78753 | 0.742 | 0.668 | 0.602 | 0.567 | 0.534 | 0.505 | 0.484
10 µM, coculture fibroblast: H6013 | 0.921 | 0.862 | 0.817 | 0.783 | 0.743 | 0.728 | 0.707 | 0.698 | 0.667
10 µM, coculture fibroblast: H6019 | 0.795 | 0.719 | 0.731 | 0.661 | 0.637 | 0.62 | 0.589 | 0.571 | 0.544
10 µM, coculture fibroblast: H6076 | 0.9453 | 0.861 | 0.821 | 0.7915 | 0.752 | 0.7395 | 0.713 | 0.702 | 0.6864
10 µM, coculture fibroblast: H6231 | 0.9269 | 0.871 | 0.798 | 0.766 | 0.697 | 0.667 | 0.609 | 0.581 | 0.557
10 µM, coculture fibroblast: HADF | 0.9252 | 0.885 | 0.846 | 0.8051 | 0.7772 | 0.74845 | 0.7068 | 0.69 | 0.6474
10 µM, coculture fibroblast: HCFa | 0.923 | 0.907 | 0.831 | 0.797 | 0.739 | 0.719 | 0.679 | 0.661 | 0.6165
10 µM, coculture fibroblast: HCPF | 0.9323 | 0.85 | 0.801 | 0.771 | 0.708 | 0.681 | 0.648 | 0.603 | 0.566
10 µM, coculture fibroblast: HHSteC | 0.935 | 0.8442 | 0.783 | 0.735 | 0.672 | 0.626 | 0.588 | 0.541 | 0.49
10 µM, coculture fibroblast: HMF | 0.882 | 0.805 | 0.757 | 0.7366 | 0.6818 | 0.6596 | 0.6134 | 0.586 | 0.559
10 µM, coculture fibroblast: HPFa | 0.949 | 0.909 | 0.796 | 0.721 | 0.669 | 0.627 | 0.574 | 0.536 | 0.469
10 µM, coculture fibroblast: HUF | 0.895 | 0.785 | 0.769 | 0.672 | 0.615 | 0.574 | 0.531 | 0.508 | 0.486
10 µM, coculture fibroblast: Hs27A | 0.835 | 0.883 | 0.825 | 0.749 | 0.805 | 0.827 | 0.851 | 0.829 | 0.774
10 µM, coculture fibroblast: Hs343T | 0.9211 | 0.833 | 0.786 | 0.76 | 0.687 | 0.655 | 0.6 | 0.568 | 0.537
10 µM, coculture fibroblast: WS1 | 0.825 | 0.748 | 0.706 | 0.625 | 0.575 | 0.555 | 0.517 | 0.495 | 0.479
100 µM, coculture fibroblast: C12385 | 0.827 | 0.7594 | 0.729 | 0.684 | 0.639 | 0.608 | 0.576 | 0.578 | 0.567
100 µM, coculture fibroblast: H6013 | 0.9165 | 0.869 | 0.83 | 0.758 | 0.682 | 0.634 | 0.588 | 0.572 | 0.536
100 µM, coculture fibroblast: H6019 | 0.789 | 0.758 | 0.759 | 0.69 | 0.667 | 0.647 | 0.628 | 0.625 | 0.607
100 µM, coculture fibroblast: H6076 | 0.906 | 0.8569 | 0.8451 | 0.834 | 0.776 | 0.779 | 0.769 | 0.7639 | 0.7794
100 µM, coculture fibroblast: H6231 | 0.899 | 0.848 | 0.847 | 0.825 | 0.761 | 0.741 | 0.705 | 0.681 | 0.668
100 µM, coculture fibroblast: HADF | 0.967 | 0.951 | 0.94 | 0.897 | 0.839 | 0.795 | 0.738 | 0.731 | 0.701
100 µM, coculture fibroblast: HCFa | 0.883 | 0.8564 | 0.8159 | 0.7761 | 0.7054 | 0.6848 | 0.6556 | 0.6519 | 0.6133
100 µM, coculture fibroblast: HCPF | 0.9226 | 0.829 | 0.748 | 0.702 | 0.61 | 0.578 | 0.553 | 0.506 | 0.487
100 µM, coculture fibroblast: HHSteC | 0.939 | 0.896 | 0.881 | 0.84 | 0.789 | 0.757 | 0.735 | 0.726 | 0.693
100 µM, coculture fibroblast: HMF | 0.913 | 0.843 | 0.785 | 0.741 | 0.659 | 0.623 | 0.588 | 0.556 | 0.54
100 µM, coculture fibroblast: HPFa | 0.961 | 0.906 | 0.841 | 0.7684 | 0.715 | 0.671 | 0.625 | 0.598 | 0.526
100 µM, coculture fibroblast: HUF | 0.874 | 0.779 | 0.7988 | 0.714 | 0.663 | 0.626 | 0.593 | 0.578 | 0.571
100 µM, coculture fibroblast: Hs27A | 0.936 | 0.912 | 0.896 | 0.846 | 0.782 | 0.772 | 0.733 | 0.732 | 0.688
100 µM, coculture fibroblast: Hs343T | 0.942 | 0.866 | 0.828 | 0.8 | 0.718 | 0.682 | 0.625 | 0.597 | 0.585
100 µM, coculture fibroblast: WS1 | 0.797 | 0.73 | 0.713 | 0.639 | 0.598 | 0.563 | 0.536 | 0.527 | 0.518

The reference is the same well before dosing, and untreated signal decays as well.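 Fibroblast labels denote human fibroblasts, mainly primary ones from uterus (C12385, HUF), lung (H6013), bone (Hs27A), adrenal (HADF) and skin (WS1), plus mammary HMF and breast cancer-associated Hs343T. Cancer cells are basal-like or mesenchymal-like triple-negative breast cancer lines. A hit is a response shift exceeding 3x replicate standard deviation. The tissue of the other fibroblasts is not given here.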
